Measured values as given in PubChem BioAssay AID296 (DTP/NCI, 2004).
The list is a part of this screen's results and no random one: it gathers some chemical classes. Other doses and runs of a compound may be missing. T/C gives the treated animals as a percentage of the vehicle group. Schedule codes are those of the source, taken here to give the interval after Q, in days (D) or hours (H), and the number of doses after X. Some T/C values are negative: the treated tumours shrank. Some entries hold several experiments; the values are given in rising order.

System: MX-1 breast xenograft, nude mice, tumor weight T/C
Test: NCI In Vivo Anticancer Drug Screen. Data for tumor model Human Mammary Carcinoma MX-1 Xenograft (intrarenal inoculation) in NU/NU Swiss (nude) mice
Conditions: T/C endpoint: mean tumor weight change, schedule: Q01DX010 (sc), vehicle: saline, evaluated on day 11, higher T/C = larger tumour
Procedure: The antitumor activity of compounds was measured in mice bearing transplantable tumors. Survival or tumor size were measured and the results are expressed as the measurement made in the treated group (T) divided by the measurement made in the vehicle treated control group (C). The tumor model used in this assay is Human Mammary Carcinoma MX-1 Xenograft (intrarenal inoculation) in NU/NU Swiss (nude) mice

## CN(CCCl)CCCl
dose: 0.06 mg/kg/injection
  T/C: 83 % of control
dose: 0.13 mg/kg/injection
  T/C: 25 and 28 % of control
dose: 0.25 mg/kg/injection
  T/C: -85 and 1 % of control
dose: 0.5 mg/kg/injection
  T/C: -67 % of control
